We go through 27 molecules from the supplement of paper PMC10735217.

This assay relates to HEK293A TEAD-LUC reporter. Briefly: TEAD-luciferase reporter activity (YAP activation), robust Z score vs plate; higher = stronger YAP/TEAD activation. The settings on record: 24 h. In general terms: A reporter such as luciferase makes a cellular process visible.

The structures appear in SMILES notation. The list shows a part of the results. Repeats in this data set agree poorly, so a single value says little.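 In a drug-repurposing library screen, luminescence reads luciferase driven by eight TEAD-binding elements, stably integrated into human kidney-derived cells. Compounds scoring over five robust Z scores above the plate mean are called hits.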

In the case of `CCC(OC)c1c(O)c(=O)cc(C)n1C` (stereo not given), the TEAD-luciferase reporter activity (compound concentration: 200 nM) is inactive: -1.1, the TEAD-luciferase reporter activity (compound concentration: 2 uM) was inactive: -0.328 and the TEAD-luciferase reporter activity (compound concentration: 10 uM) is inactive: -0.174.
In the case of `NCCC(=O)N1Cc2ccccc2CC2(CCCCN2CC2CCNCC2)C1` (stereo not given), the TEAD-luciferase reporter activity is inactive: -1.33 (compound concentration: 200 nM) and inactive: 2.08 (compound concentration: 10 uM).
In the case of `CCc1cnc(N2CCC(c3nc(COc4ccc(-n5cnnn5)cc4)cs3)CC2)nc1`, the TEAD-luciferase reporter activity runs as follows: (compound concentration: 200 nM) inactive: -0.37; (compound concentration: 2 uM) inactive: -0.848; (compound concentration: 10 uM) active: 8.53.
On the same counts, the results for `O=S(=O)(c1cccc2ccccc12)c1n[nH]c2ccc(N3CCNCC3)cc12` are inactive: -0.55, inactive: -1.97 and inactive: -0.486.
As for `CC(C)C[C@@H](C(=O)N[C@H](c1noc(-c2cccs2)n1)C(C)(C)C)[C@H](O)C(=O)NO`, the TEAD-luciferase reporter activity is inactive: 0.136 (compound concentration: 200 nM), inactive: -0.871 (compound concentration: 2 uM) and inactive: 0.582 (compound concentration: 10 uM).
Turning to `N=C1NCCN1CC(=O)O` [Cyclocreatine], the TEAD-luciferase reporter activity (compound concentration: 200 nM) was inactive: -0.413, the TEAD-luciferase reporter activity (compound concentration: 2 uM) was inactive: 0.683 and the TEAD-luciferase reporter activity (compound concentration: 10 uM) was inactive: -0.702.
On the same counts, the results for `COc1cc([C@@H]2c3cc4c(cc3[C@@H](NC(=O)Cc3ccccc3)[C@H]3COC(=O)[C@H]23)OCO4)cc(OC)c1OC` are inactive: 1.6, inactive: 1.06 and inactive: -2.51.
On the same counts, the results for `C[C@H](CSC(=O)c1ccccc1)C(=O)N1C[C@@H](Sc2ccccc2)C[C@H]1C(=O)O` are inactive: -0.256, inactive: 0.0183 and inactive: 1.57.
Consider `NC1=N[C@@](c2cccc(-c3cncnc3)c2)(c2ccnc(C(F)F)c2)c2cccc(F)c21`, for which the TEAD-luciferase reporter activity was inactive: 0.368 (compound concentration: 200 nM), inactive: 0.0378 (compound concentration: 2 uM) and inactive: -1.03 (compound concentration: 10 uM).
On the same counts, the results for `CCCCCC1C(O)CCC1CC(=O)O` (stereo not given) are inactive: -0.162, inactive: -0.334 and inactive: 1.29.
With `N=C(N)c1cc2ccc(OC(=O)c3cccs3)cc2s1`, the TEAD-luciferase reporter activity was inactive: 1.28 (compound concentration: 200 nM), inactive: 2.84 (compound concentration: 2 uM) and inactive: 0.537 (compound concentration: 10 uM).
In the same order, the values of `NS(=O)(=O)c1cc2c(cc1Cl)NC(Cc1ccccc1)NS2(=O)=O` (stereo not given) are inactive: 0.271, inactive: -0.732 and inactive: 0.45.
Consider `CCCC1(CCC)CCC2(CCN(CCCN(CC)CC)C2)CC1` [atiprimod dimaleate], for which the TEAD-luciferase reporter activity is, setting by setting: (compound concentration: 200 nM) inactive: 0.0785; (compound concentration: 2 uM) inactive: -0.437; (compound concentration: 10 uM) inactive: 0.111.
On the same counts, the results for `O[C@H]1[C@H](O)[C@@H](O)[C@H](O)[C@@H](O)[C@@H]1O` [scyllo-Inositol] are inactive: -1.2, inactive: -0.296 and inactive: -0.578.
For `Cc1cc(O)c(C(=O)N[C@@H](C(=O)N[C@@H]2C(=O)N3C(C(=O)O)=C(CSc4nnnn4C)CS[C@H]23)c2ccc(O)cc2)cn1` [cefpiramide], the TEAD-luciferase reporter activity is inactive: 0.557 (compound concentration: 200 nM), inactive: -0.73 (compound concentration: 2 uM) and inactive: 0.936 (compound concentration: 10 uM).
In the case of `CCNCCS(=O)(=O)NC[C@@]1(c2ccccc2)SC(NC(=O)C(C)(C)C)=NN1C(=O)C(C)(C)C` [litronesib], the TEAD-luciferase reporter activity is inactive: -1.45 (compound concentration: 200 nM), inactive: -1.02 (compound concentration: 2 uM) and inactive: -0.64 (compound concentration: 10 uM).
On to `O=C(O)[C@@H]1C[C@H](Cc2nnn[nH]2)CCN1`, for which the TEAD-luciferase reporter activity is, setting by setting: (compound concentration: 200 nM) inactive: -1.31; (compound concentration: 10 uM) inactive: 2.13.
For the molecule `C=CC1=C(C(=O)O)N2C(=O)[C@@H](NC(=O)/C(=N/OCC(=O)O)c3csc(N)n3)[C@H]2SC1` [cefixime], the TEAD-luciferase reporter activity (compound concentration: 2 uM) was inactive: -1.88.
With `C=CC1=C(C(=O)O)N2C(=O)[C@@H](NC(=O)/C(=N/OCC(=O)O)c3csc(N)n3)[C@H]2SC1`, the TEAD-luciferase reporter activity by setting is: (compound concentration: 200 nM) inactive: -0.783; (compound concentration: 10 uM) inactive: 2.68.
`O=C1N=C2C=CC=CN2C1(Cc1ccccc1)Cc1ccccc1`: the TEAD-luciferase reporter activity reads like this: (compound concentration: 200 nM) inactive: -1.45; (compound concentration: 2 uM) inactive: -0.655; (compound concentration: 10 uM) inactive: 0.292.
With `Cn1cnc2c(OCc3ccccc3Cl)nccc21`, the TEAD-luciferase reporter activity reads like this: (compound concentration: 200 nM) inactive: 1.43; (compound concentration: 2 uM) inactive: 0.629; (compound concentration: 10 uM) inactive: 1.69.
In the same order, the values of `c1cnc(SCc2cccnc2)nc1` [tasuldine] are inactive: 0.856, inactive: -1.43 and inactive: -0.351.
In the same order, the values of `O=C(O)Cc1cn(-c2ccccc2)nc1-c1ccc(Cl)cc1` [lonazolac calcium] are inactive: -1.56, inactive: -0.195 and inactive: 1.51.
In the same order, the values of `CC(=O)CCCC(C)(C)CO` are inactive: -1.79, inactive: 2.24 and inactive: -1.96.
As to `CC(C)C[C@H](NC(=O)[C@H](C)NC(=O)[C@H](CCCNC(=N)N)NC(=O)[C@H](CCC(=O)O)NC(=O)[C@H](CC(C)C)NC(=O)[C@H](CCC(N)=O)NC(=O)[C@H](CCC(=O)O)NC(=O)[C@@H]1CCC(=O)N1)C(=O)N[C@@H](CC(N)=O)C(=O)N[C@@H](CO)C(=O)N[C@@H](CO)C(=O)O`, the TEAD-luciferase reporter activity is, setting by setting: (compound concentration: 200 nM) inactive: 0.786; (compound concentration: 2 uM) inactive: -1.77; (compound concentration: 10 uM) inactive: -0.0274.
As for `CN(C)C(=O)NC1CCN(c2nc3ncccc3o2)CC1`, the TEAD-luciferase reporter activity by setting is: (compound concentration: 200 nM) active: 6.35; (compound concentration: 10 uM) inactive: -0.86.
For the molecule `O=C(OCCN1CCCC1)c1ccccc1Nc1ccnc2cc(C(F)(F)F)ccc12`, the TEAD-luciferase reporter activity is inactive: -0.612 (compound concentration: 200 nM), inactive: -1.11 (compound concentration: 2 uM) and inactive: -0.19 (compound concentration: 10 uM).
